The source of these data is article PMC9645627.

By UniProt entry, the sequences of proteins in these tests, tags left out. Where a name states a change or a piece, a line headed by the entry shows the natural chain unless it says otherwise.
UniProt P25491: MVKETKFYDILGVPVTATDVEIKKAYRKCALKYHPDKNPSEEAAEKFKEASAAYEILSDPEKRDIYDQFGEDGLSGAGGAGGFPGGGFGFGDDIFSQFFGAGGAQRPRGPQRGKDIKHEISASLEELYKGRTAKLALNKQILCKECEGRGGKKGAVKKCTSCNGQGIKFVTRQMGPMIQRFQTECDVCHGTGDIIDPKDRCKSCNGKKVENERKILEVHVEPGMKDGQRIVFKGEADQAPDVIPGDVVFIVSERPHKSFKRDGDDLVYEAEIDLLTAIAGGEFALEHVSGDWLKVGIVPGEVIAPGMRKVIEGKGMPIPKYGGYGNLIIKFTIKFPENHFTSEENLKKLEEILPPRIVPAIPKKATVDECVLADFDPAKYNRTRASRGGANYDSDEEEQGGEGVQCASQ
UniProt P10591: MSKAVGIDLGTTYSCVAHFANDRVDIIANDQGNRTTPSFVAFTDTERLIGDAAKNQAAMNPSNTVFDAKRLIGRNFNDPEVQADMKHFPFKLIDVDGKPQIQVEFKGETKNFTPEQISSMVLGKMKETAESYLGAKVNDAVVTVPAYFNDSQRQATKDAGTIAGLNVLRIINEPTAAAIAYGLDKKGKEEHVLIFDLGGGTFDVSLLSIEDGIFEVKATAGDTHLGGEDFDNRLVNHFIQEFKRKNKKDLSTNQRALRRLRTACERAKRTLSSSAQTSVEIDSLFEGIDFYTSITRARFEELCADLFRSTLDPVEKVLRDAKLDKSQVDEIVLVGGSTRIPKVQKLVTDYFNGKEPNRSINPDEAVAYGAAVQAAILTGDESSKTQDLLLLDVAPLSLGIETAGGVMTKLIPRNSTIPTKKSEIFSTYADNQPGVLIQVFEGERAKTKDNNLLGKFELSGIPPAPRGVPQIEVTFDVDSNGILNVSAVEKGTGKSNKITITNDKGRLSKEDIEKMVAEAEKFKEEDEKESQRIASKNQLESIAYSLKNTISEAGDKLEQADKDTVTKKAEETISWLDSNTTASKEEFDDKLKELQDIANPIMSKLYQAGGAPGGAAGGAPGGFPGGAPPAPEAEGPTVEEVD
UniProt P22202: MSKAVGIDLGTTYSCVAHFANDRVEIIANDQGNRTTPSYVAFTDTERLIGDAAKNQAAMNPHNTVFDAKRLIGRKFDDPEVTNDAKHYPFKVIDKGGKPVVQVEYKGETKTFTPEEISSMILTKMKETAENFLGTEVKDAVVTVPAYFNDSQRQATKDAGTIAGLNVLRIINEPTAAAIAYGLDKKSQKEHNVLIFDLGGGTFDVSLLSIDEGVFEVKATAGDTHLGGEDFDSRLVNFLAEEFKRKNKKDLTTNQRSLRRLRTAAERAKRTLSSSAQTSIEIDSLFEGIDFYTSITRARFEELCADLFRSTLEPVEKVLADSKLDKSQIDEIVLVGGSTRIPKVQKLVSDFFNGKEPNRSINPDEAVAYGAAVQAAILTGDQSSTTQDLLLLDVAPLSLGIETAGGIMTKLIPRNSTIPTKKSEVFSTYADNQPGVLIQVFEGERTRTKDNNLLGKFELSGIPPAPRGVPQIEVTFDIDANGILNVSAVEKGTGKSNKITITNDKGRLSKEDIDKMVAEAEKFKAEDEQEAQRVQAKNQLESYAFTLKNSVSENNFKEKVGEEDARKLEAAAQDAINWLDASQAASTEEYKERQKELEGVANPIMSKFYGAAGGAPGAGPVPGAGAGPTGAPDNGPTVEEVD
UniProt P09435: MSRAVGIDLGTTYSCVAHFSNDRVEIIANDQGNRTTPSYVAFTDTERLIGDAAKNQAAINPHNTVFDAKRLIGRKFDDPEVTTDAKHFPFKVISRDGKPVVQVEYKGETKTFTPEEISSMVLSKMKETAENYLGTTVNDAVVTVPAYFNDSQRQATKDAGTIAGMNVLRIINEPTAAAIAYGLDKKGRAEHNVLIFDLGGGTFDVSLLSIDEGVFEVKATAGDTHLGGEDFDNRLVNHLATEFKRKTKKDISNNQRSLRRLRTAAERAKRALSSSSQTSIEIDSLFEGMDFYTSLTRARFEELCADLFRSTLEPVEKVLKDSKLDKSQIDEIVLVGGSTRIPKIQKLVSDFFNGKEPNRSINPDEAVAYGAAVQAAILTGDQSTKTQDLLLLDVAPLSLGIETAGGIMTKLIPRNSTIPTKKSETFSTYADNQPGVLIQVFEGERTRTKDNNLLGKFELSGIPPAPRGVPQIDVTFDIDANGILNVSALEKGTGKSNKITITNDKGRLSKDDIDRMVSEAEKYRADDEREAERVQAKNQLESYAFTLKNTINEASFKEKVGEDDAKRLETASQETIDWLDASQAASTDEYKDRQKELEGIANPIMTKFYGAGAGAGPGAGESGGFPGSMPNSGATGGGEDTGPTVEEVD

Assay [1] concerns the target His6-Ydj1 (S. cerevisiae) (UniProt P25491). Briefly: pull-down; purified His6-Ydj1 bound to cobalt affinity resin for 1 h, incubated with clarified yeast lysate for 1 h; eluted with 20 mM EDTA; blots with anti-Hsp70, anti-Hsp90, anti-Ydj1; only the target purified.
The target in assay [2] is T1, His6-Sti1, purified (S. cerevisiae) (UniProt P15705).
T1 sequence: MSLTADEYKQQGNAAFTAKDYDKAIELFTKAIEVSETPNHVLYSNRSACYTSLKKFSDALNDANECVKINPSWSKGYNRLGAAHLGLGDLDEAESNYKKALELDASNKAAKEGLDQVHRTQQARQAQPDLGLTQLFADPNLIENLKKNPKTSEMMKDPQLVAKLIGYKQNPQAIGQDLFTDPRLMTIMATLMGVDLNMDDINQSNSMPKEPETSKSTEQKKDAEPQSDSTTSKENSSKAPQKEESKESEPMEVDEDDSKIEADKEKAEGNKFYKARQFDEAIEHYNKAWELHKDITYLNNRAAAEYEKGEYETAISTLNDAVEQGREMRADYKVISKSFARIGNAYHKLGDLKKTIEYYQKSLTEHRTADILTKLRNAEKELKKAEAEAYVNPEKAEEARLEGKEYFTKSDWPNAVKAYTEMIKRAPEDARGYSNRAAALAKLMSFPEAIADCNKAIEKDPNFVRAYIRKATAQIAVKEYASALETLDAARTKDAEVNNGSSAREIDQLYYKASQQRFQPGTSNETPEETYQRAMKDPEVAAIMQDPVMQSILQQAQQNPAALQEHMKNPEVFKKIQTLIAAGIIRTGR
Nature of the assay: pull-down; purified His6-Sti1 incubated with yeast lysate (Ssa1 or Ssa1-T175N as sole cytosolic Hsp70), then with Co2+-NTA resin; blots with antibodies against Hsp70, Hsp90 and His6; only the target purified.

The target of assay [3] is His6-Ydj1 (S. cerevisiae) (UniProt P25491). Briefly: BLI; Ssa1, Ssa2, Ssa3 and Ssa4 with Ydj1; set-up not told here (as in ref. 26). (In general: Biolayer interferometry detects binding as a change in optical thickness at a sensor tip.)
The target in assay [4] is FLAG-v-Src (Rous sarcoma virus) (UniProt P00524). Briefly: co-IP.

These are yes or no findings as the source states them, for the method shown. For some assays here: Binding seen in cells or lysates may run through a third protein. Some results given as binding are weak or reduced against the parent protein; the word gives no strength. For some assays here: Tags and fused reporters may be left off the sequences shown.

Consider “Ssa1-T175N, expressed as sole Ssa Hsp70 in strain A1-T175N (from UniProt P10591 1-642)”, for which the binding entry in assay [1] and in assay [2] was “binds” each time.
As for Ssa4 (from UniProt P22202 1-642), the binding entry in assay [3] was “binds weakly”.
“Ssa1-D158N, expressed as sole Ssa Hsp70 in strain A1-D158N (from UniProt P10591 1-642)”: in assay [1], the binding result was “binds”.
“Ssa1 (wt), expressed as sole Ssa Hsp70 in strain A1 (from UniProt P10591 1-642)”: the binding result in assay [1], in assay [4] and in assay [2] was “binds” throughout.
Regarding Ssa3 (from UniProt P09435 1-649), in assay [3], the binding entry is “binds”.
